Measured values as given in paper PMC9430930.
Protein sequences can lack the tags named with them. For at least one entry, the source does not settle the construct or the ends of the probe. For some of these results: At least one verdict rests on a figure or table, not on a statement of the authors.

tested on: NupR (NagR2) (Bacillus thuringiensis BMB171); experiment: EMSA; settings: NupR: 10 mM Tris-HCl pH 7.5, 50 mM NaCl, 0.5 mM DTT, 4% glycerol, 200 ng poly(dI-dC), 25 C 30 min; ComK/CcpA/PurR: 10 mM Tris-HCl pH 8.0, 50 mM KCl, 10 mM EDTA; recombinant protein; residues 1-248; protein details: His; label: Cy5; probe letters rebuilt from the primers and the genome

Does “GGTATAATGAAAAGGGCATCAAGTGAAACTTGATGCTCTTTTTTGTTTTATTCAACTATTTGCAGATAGTAAAAGACGAACATTCGTAGACGTTTTATAATAAAATGTAATTTTTTAAAGAAAAGTGCGGATATGATTTGTGATTTGTGTTAGAATGGAAAATGCCTTTGAAATAAGAGGTTTTATGATCTTTCCTATCCGATTGAAGATTTTGGGGGAGAAATGGAAAGTTCGGATTATTTCTTGTTTTGAATGGTCAGACGTTCAACGTTAATGAAGAGTTAAATGGAGGATTTTATTAATGAAGTTTGTTATGTTCCTTGTAGG (double strand) [nupC3 promoter]” bind?
Result: binds

Does “GCTATGAGTTCAACAATTACTCCCTTTCCCCTAGCTTCCCTCTACAAAAATAATGTATCTATTCTTCCATTTCATACACTTTATTCTGCAAAAACAATCCATAACGTTATCATAATGTATATATTCCCATAAAAAACATAACCTATTTCATGTCTATTTATTTCATATGTGTTTTTTTGAAGAATTTTCTTTTTATTTAAACTTTTCATTAGACGTTTGACCTCCGATGTCCATTATGATAAGTTACTTAAGATGTTATATTCGTAAACGTATAGACAACTGGTTTATACACTGTTTTTACTATGAGGAAGGAGCATACACTGCATGAATC (double strand) [nupC4 promoter]” bind?
Result: binds

Does “CGGACGATGTTACCTCATATATACTTGATAATATGGATCGAGAGTTTCTACCCGGCAACCTTAAATTGCTGGACTATGGGGAAAACTAATGAATATTAGCCTATGCGCAAAAAAGGACTCATATTGATTAGCTTTCTCTCATAGATGAAAGTGAATCCATATGGGTCTTTTTTTATTTTTATTTTTCTAAAAGGTCAGACATCTTACGTATGACATAAAACCTCATTCCTTTATTTTTAGTAATATAACGAGCGTTTTATGTACAAACTTTATACGAACTTCTGAAAGGGGCAACTACATGCAATATGTAATGAGCATTATCGG (double strand) [nupC1 promoter]” bind?
Result: binds

Does “ATATGTGAATCCTCCACTTCTCCCACAAGTTATTGGTCGTATAACGTATAACGAATGACGTCTGACCATTGTTGTTAAAAAATTTAAAACCCCTAAAACTATTCAACTGTCATCTAAAATCAGTAAGCGTTTACATAAATTGCAATTTATAAAAGGTAGCTTCTTCTCTCCTACCATACTTGAAAGTCTGAAATTGATACCACCTACAAATCAAATTGTAAGCGTTATCTAGACGAAATGCAATATAAATTTTAAAAGATTTTCATATGTTAATATATTCCTAATTAATTGGTTTTTTCATGTAAATTTACCATGAAAATAGCCC (double strand) [nupC2 promoter]” bind?
Result: binds

same assay, conditions: Zn2+ then EDTA; NupR: 10 mM Tris-HCl pH 7.5, 50 mM NaCl, 0.5 mM DTT, 4% glycerol, 200 ng poly(dI-dC), 25 C 30 min; ComK/CcpA/PurR: 10 mM Tris-HCl pH 8.0, 50 mM KCl, 10 mM EDTA; recombinant protein; residues 1-248; protein details: His; label: Cy5; probe letters rebuilt from the primers and the genome

Does “TCTTTTCTCTTTTTTCAACTTACAACATAGTACAAATGACTAAACACCAAAATAAGTGTAATTGTCGAATAAATAATAATAATTTTTTAAAATAAAATTTTCACTCTTTATTGCATAAAAAAAACTTTGCACCATAAACATTCCTCATTTCGAGAAAAAGTTCGGCACAAAGATCCTTTACATCCTTTGTTACACACTTTTCCCCTCATAGTCTAGCAATTCATGGTTGCCAGGTAGAAACTTATGGACCTTATCTCCAAGATTATATGAGGCAGTGATTCTTTTCGAAGTAATCTTACCACTTGCTCTCATACGTGTCAACAAAATCTAACATTTTTCTGCATTAAATATCGAACATTTACATAAAACATACTCAAAGTATTCGTATTCTAAAGGGCACCCCTAAATGTAAGCCCTTTCTTTATCGCTGAGTATAGTATATAACAAAAACACTATATAAAAAAGCCTAATTGTAAAAACAATTAGGCTTTTTTTAAGAACTTTTTTCTTGTACATCATTAATGAGTACTTCTCTCGGCCATGGCCCTATAGTGATCGTATTA (double strand) [nupR-p14]” bind?
Result: binds

same assay, conditions: no added metal; NupR: 10 mM Tris-HCl pH 7.5, 50 mM NaCl, 0.5 mM DTT, 4% glycerol, 200 ng poly(dI-dC), 25 C 30 min; ComK/CcpA/PurR: 10 mM Tris-HCl pH 8.0, 50 mM KCl, 10 mM EDTA; recombinant protein; residues 1-248; protein details: His; label: Cy5; probe letters rebuilt from the primers and the genome

Does “TCTTTTCTCTTTTTTCAACTTACAACATAGTACAAATGACTAAACACCAAAATAAGTGTAATTGTCGAATAAATAATAATAATTTTTTAAAATAAAATTTTCACTCTTTATTGCATAAAAAAAACTTTGCACCATAAACATTCCTCATTTCGAGAAAAAGTTCGGCACAAAGATCCTTTACATCCTTTGTTACACACTTTTCCCCTCATAGTCTAGCAATTCATGGTTGCCAGGTAGAAACTTATGGACCTTATCTCCAAGATTATATGAGGCAGTGATTCTTTTCGAAGTAATCTTACCACTTGCTCTCATACGTGTCAACAAAATCTAACATTTTTCTGCATTAAATATCGAACATTTACATAAAACATACTCAAAGTATTCGTATTCTAAAGGGCACCCCTAAATGTAAGCCCTTTCTTTATCGCTGAGTATAGTATATAACAAAAACACTATATAAAAAAGCCTAATTGTAAAAACAATTAGGCTTTTTTTAAGAACTTTTTTCTTGTACATCATTAATGAGTACTTCTCTCGGCCATGGCCCTATAGTGATCGTATTA (double strand) [nupR-p14]” bind?
Result: binds

biological target: NupR (NagR2) (Bacillus thuringiensis BMB171) (UniProt A0A0G3E6K4); experiment: EMSA; settings: 10 mM Tris-HCl pH 7.5, 50 mM NaCl, 0.5 mM DTT, 4% glycerol, 200 ng poly(dI-dC) in 10 uL, 25 C, 30 min; 6% native PAGE in 0.5x TBE; recombinant protein; protein details: His; label: Cy5; flanks not given

Does “AAAGGTCTGATATCATTCTT (double strand) [BMB171_RS26765]” bind?
Result: binds

Does “CGACCTCTGATGTAAGACTT (double strand) [BMB171_RS18795]” bind?
Result: binds

Does “AGTGGTAAGACCTATTAAAA (double strand) [BMB171_RS27155]” bind?
Result: binds

Does “AGAAGTAAGACGTATTATCT (double strand) [BMB171_RS09485]” bind?
Result: binds

Does “AAAGGTCAGACATCTTACGT (double strand) [BMB171_RS01930]” bind?
Result: binds

Does “AATGGTCAGACGTCATTCGT (double strand) [BMB171_RS25245]” bind?
Result: binds

Does “CGAAGTAAGACAACTGACGA (double strand) [BMB171_RS26545]” bind?
Result: binds

Does “ATTGGTAAGATGTCAAACAT (double strand) [BMB171_RS00930]” bind?
Result: binds

Does “AGTGGTATGACAACTCAAAA (double strand) [BMB171_RS26735]” bind?
Result: binds

Does “GGAGGTCAAACGTCTAATGA (double strand) [BMB171_RS26110]” bind?
Result: binds

Does “AATGGTCAGACGTTCAACGT (double strand) [BMB171_RS25250]” bind?
Result: binds

Does “ACAGGTCTGACGTCTATCGT (double strand) [BMB171_RS20290]” bind?
Result: binds

Does “AATAGTAAGACATCAAACCT (double strand) [BMB171_RS26950]” bind?
Result: binds
